Results deposited as PubChem BioAssay AID1508588 (Peter MacCallum Cancer Centre, 2020)
Screen: 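Genome-wide search for knock-downs that heighten vemurafenib action in melanoma cells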 (primary screen). System: human WM266.4 melanoma cells (BRAF V600 mutant). Reagent: siRNA pool against human genes, 40 nM. Time to read-out: 96 h from transfection to read-out. Challenge: vemurafenib 300 nM (about IC25), added 48 h after transfection, for 48 h; comparison arm got DMSO vehicle only. Measured: 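Ratios to non-targeting siRNA for cell gain, counted as DAPI nuclei after minus before drug and averaged over two replicates, and for absorbance-read medium lactate per cell; both binned into fold-change classes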. Reading the numbers: cell gain with vemurafenib: higher = more cell gain than with non-targeting siRNA; lactate per cell with vemurafenib: higher = more lactate made per cell. Rule for the call: 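a knock-down counts as enhancing when its fold-change classes with vehicle and with vemurafenib, taken together, show a stronger drug effect on cell gain or lactate per cell; exact class pairs not stated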. Calls: active = enhances vemurafenib effect; inactive = no enhancement seen.
The whole screen tested about 18,000 reagents; this is a part drawn at random. 790 of them (4.4%) count as active. 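Calls rest on a combination of fold-change classes in drug and vehicle arms, not all shown here.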

gene symbol | cell gain with vemurafenib | lactate per cell with vemurafenib | activity call
ST3GAL1 (ST3 beta-galactoside alpha-2,3-sialyltransferase 1) | 0.51 | 1.8 | inactive
GJC2 (gap junction protein gamma 2) | 0.37 | 1.84 | inactive
PMF1 (polyamine modulated factor 1) | 0.3 | 0.57 | inactive
CRB1 (crumbs cell polarity complex component 1) | 0.99 | 0.75 | inactive
HOXD13 (homeobox D13) | 0.92 | 1.24 | inactive
REM1 (RRAD and GEM like GTPase 1) | 0.63 | 1.51 | inactive
PRSS48 (serine protease 48) | 0.64 | 0.92 | inactive
ADAMTSL4 (ADAMTS like 4) | 0.45 | 0.81 | inactive
HAUS6 (HAUS augmin like complex subunit 6) | 0.5 | 0.8 | inactive
EPOR (erythropoietin receptor) | 0.36 | 0.94 | inactive
PCDHGA7 (protocadherin gamma subfamily A, 7) | 0.7 | 1.34 | inactive
VSIG2 (V-set and immunoglobulin domain containing 2) | 0.55 | 1.31 | inactive
FECH (ferrochelatase) | 0.04 | 0.99 | inactive
ACAD8 (acyl-CoA dehydrogenase family member 8) | 0.19 | 1.38 | inactive
TMEM220 (transmembrane protein 220) | 0.18 | 2.06 | inactive
GNL3L (G protein nucleolar 3 like) | 1.18 | 0.54 | inactive
HAGH (hydroxyacylglutathione hydrolase) | 0.81 | 0.53 | inactive
CXCL5 (C-X-C motif chemokine ligand 5) | 0.68 | 1.39 | inactive
SHROOM4 (shroom family member 4) | 0.77 | 0.84 | inactive
MAML1 (mastermind like transcriptional coactivator 1) | 0.39 | 0.66 | inactive
CFAP68 (cilia and flagella associated protein 68) | 0.51 | 0.44 | inactive
TCHP (trichoplein keratin filament binding) | 0.93 | 0.93 | inactive
WIPF1 (WAS/WASL interacting protein family member 1) | 0.19 | 1.75 | inactive
MC5R (melanocortin 5 receptor) | 0.62 | 1 | inactive
EYA3 (EYA transcriptional coactivator and phosphatase 3) | 0.5 | 0.94 | inactive
TMCC3 (transmembrane and coiled-coil domain family 3) | 0.42 | 1.85 | inactive
TPD52L2 (TPD52 like 2) | 1.23 | 0.75 | inactive
ITK (IL2 inducible T cell kinase) | 0.98 | 0.54 | inactive
ZG16 (zymogen granule protein 16) | 0.6 | 0.89 | inactive
DISC1 (DISC1 scaffold protein) | 0.37 | 0.68 | inactive
MGME1 (mitochondrial genome maintenance exonuclease 1) | 0.37 | 1.35 | inactive
RORB (RAR related orphan receptor B) | 0.41 | 1.36 | inactive
RPL6 (ribosomal protein L6) | -0.08 | 1.77 | inactive
SRD5A1 (steroid 5 alpha-reductase 1) | 0.22 | 1.62 | inactive
CXCL2 (C-X-C motif chemokine ligand 2) | 0.85 | 0.38 | inactive
PPP1R10 (protein phosphatase 1 regulatory subunit 10) | 0.51 | 1.76 | inactive
TTC21B (tetratricopeptide repeat domain 21B) | 0.92 | 0.82 | inactive
TADA2A (transcriptional adaptor 2A) | 0.75 | 1.1 | inactive
PLBD1 (phospholipase B domain containing 1) | 0.63 | 0.85 | inactive
TNFSF13 (TNF superfamily member 13) | 1.09 | 0.64 | inactive
PLBD2 (phospholipase B domain containing 2) | 0 | 0 | inactive
MMP9 (matrix metallopeptidase 9) | 0.51 | 0.92 | inactive
GDI1 (GDP dissociation inhibitor 1) | 0.97 | 0.71 | inactive
SF3B6 (splicing factor 3b subunit 6) | -0.05 | 2.62 | inactive
SERGEF (secretion regulating guanine nucleotide exchange factor) | 0.57 | 0.64 | inactive
MMGT1 (membrane magnesium transporter 1) | 0.34 | 0.62 | inactive
OR1K1 (olfactory receptor family 1 subfamily K member 1) | 0.08 | 1.4 | inactive
PEX39 (peroxisomal biogenesis factor 39) | 0.92 | 1.24 | inactive
CCDC68 (coiled-coil domain containing 68) | 0.96 | 0.99 | inactive
PIGF (phosphatidylinositol glycan anchor biosynthesis class F) | 0.71 | 0.88 | inactive
KCNK10 (potassium two pore domain channel subfamily K member 10) | 0.41 | 0.76 | inactive

Just “lactate per cell with vemurafenib” (11 entries from above):
HAGH (hydroxyacylglutathione hydrolase) = 0.53
CXCL5 (C-X-C motif chemokine ligand 5) = 1.39
SHROOM4 (shroom family member 4) = 0.84
MAML1 (mastermind like transcriptional coactivator 1) = 0.66
CFAP68 (cilia and flagella associated protein 68) = 0.44
TCHP (trichoplein keratin filament binding) = 0.93
WIPF1 (WAS/WASL interacting protein family member 1) = 1.75
MC5R (melanocortin 5 receptor) = 1
EYA3 (EYA transcriptional coactivator and phosphatase 3) = 0.94
TMCC3 (transmembrane and coiled-coil domain family 3) = 1.85
TPD52L2 (TPD52 like 2) = 0.75

Continued:
gene symbol | cell gain with vemurafenib | lactate per cell with vemurafenib | activity call
SHOX (SHOX homeobox) | 1.17 | 0.94 | inactive
IKZF5 (IKAROS family zinc finger 5) | 0.84 | 0.56 | inactive
SSR2 (signal sequence receptor subunit 2) | 0.19 | 2.46 | inactive
SYT5 (synaptotagmin 5) | 0.82 | 0.6 | inactive
SEM1 (SEM1 26S proteasome subunit) | 0.39 | 1.16 | inactive
LSM8 (LSM8 homolog, U6 small nuclear RNA associated) | 0.63 | 1.64 | inactive
COL20A1 (collagen type XX alpha 1 chain) | -0.25 | 2.74 | inactive
IRF4 (interferon regulatory factor 4) | 0.52 | 1.16 | inactive
RASSF3 (Ras association domain family member 3) | 0.39 | 0.77 | inactive
OR2L8 (olfactory receptor family 2 subfamily L member 8) | 0.51 | 0.99 | inactive
LAMB3 (laminin subunit beta 3) | 0.65 | 0.92 | inactive
ADAMTSL1 (ADAMTS like 1) | 0.59 | 0.9 | inactive
NOTCH1 (notch receptor 1) | 1.03 | 1.04 | inactive
OR52K2 (olfactory receptor family 52 subfamily K member 2) | 0.73 | 0.84 | inactive
RGL4 (ral guanine nucleotide dissociation stimulator like 4) | 0.49 | 1.56 | inactive
JKAMP (JNK1/MAPK8 associated membrane protein) | 0.48 | 0.8 | inactive
RHD (Rh blood group D antigen) | 1.08 | 0.92 | inactive
WFDC2 (WAP four-disulfide core domain 2) | 1 | 1.18 | inactive
KLHL15 (kelch like family member 15) | 0.54 | 1.28 | inactive
TRAPPC2L (trafficking protein particle complex subunit 2L) | 0.51 | 0.82 | inactive
LY6G6D (lymphocyte antigen 6 family member G6D) | 0.88 | 0.92 | inactive
GPER1 (G protein-coupled estrogen receptor 1) | 0.56 | 1.81 | inactive
DDX60 (DExD/H-box helicase 60) | 0.72 | 0.68 | inactive
XDH (xanthine dehydrogenase) | 0.94 | 0.96 | inactive
VAV2 (vav guanine nucleotide exchange factor 2) | 1.06 | 0.77 | inactive
FBLN2 (fibulin 2) | 0.27 | 1.26 | inactive
TMBIM6 (transmembrane BAX inhibitor motif containing 6) | 0.66 | 0.62 | inactive
TRAPPC12 (trafficking protein particle complex subunit 12) | 0.18 | 1.81 | inactive
BLNK (B cell linker) | 0.31 | 0.98 | inactive
MCRIP1 (MAPK regulated corepressor interacting protein 1) | 0.45 | 0.82 | inactive
TAS1R2 (taste 1 receptor member 2) | 0.47 | 0.52 | inactive
QDPR (quinoid dihydropteridine reductase) | 0.86 | 0.79 | inactive
OFD1 (OFD1 centriole and centriolar satellite protein) | 0.54 | 0.6 | inactive
